Reference: publication PMC8024722
No constants are given. Whether binding was seen depends on the method and setting. Binding seen in cells or lysates may run through a third protein. Some results given as binding are weak or reduced against the parent protein; the word gives no strength.

Amino acid sequences for entries named in this document (tags omitted). A change or cut given only in a name is not applied to a line headed by its entry. Residues count along the entry.
UniProt Q92754: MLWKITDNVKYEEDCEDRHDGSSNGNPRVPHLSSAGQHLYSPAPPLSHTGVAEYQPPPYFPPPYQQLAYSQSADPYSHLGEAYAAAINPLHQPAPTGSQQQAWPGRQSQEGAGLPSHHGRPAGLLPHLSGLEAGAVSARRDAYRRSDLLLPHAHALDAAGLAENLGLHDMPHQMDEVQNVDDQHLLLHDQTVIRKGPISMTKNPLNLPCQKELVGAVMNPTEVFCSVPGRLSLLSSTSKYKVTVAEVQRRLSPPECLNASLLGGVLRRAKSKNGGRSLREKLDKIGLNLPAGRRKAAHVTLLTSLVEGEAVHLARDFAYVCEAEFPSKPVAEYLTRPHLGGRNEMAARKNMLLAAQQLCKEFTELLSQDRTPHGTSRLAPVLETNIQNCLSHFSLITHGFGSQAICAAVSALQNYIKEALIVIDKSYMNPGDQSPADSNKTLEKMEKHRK
UniProt Q8IZL8: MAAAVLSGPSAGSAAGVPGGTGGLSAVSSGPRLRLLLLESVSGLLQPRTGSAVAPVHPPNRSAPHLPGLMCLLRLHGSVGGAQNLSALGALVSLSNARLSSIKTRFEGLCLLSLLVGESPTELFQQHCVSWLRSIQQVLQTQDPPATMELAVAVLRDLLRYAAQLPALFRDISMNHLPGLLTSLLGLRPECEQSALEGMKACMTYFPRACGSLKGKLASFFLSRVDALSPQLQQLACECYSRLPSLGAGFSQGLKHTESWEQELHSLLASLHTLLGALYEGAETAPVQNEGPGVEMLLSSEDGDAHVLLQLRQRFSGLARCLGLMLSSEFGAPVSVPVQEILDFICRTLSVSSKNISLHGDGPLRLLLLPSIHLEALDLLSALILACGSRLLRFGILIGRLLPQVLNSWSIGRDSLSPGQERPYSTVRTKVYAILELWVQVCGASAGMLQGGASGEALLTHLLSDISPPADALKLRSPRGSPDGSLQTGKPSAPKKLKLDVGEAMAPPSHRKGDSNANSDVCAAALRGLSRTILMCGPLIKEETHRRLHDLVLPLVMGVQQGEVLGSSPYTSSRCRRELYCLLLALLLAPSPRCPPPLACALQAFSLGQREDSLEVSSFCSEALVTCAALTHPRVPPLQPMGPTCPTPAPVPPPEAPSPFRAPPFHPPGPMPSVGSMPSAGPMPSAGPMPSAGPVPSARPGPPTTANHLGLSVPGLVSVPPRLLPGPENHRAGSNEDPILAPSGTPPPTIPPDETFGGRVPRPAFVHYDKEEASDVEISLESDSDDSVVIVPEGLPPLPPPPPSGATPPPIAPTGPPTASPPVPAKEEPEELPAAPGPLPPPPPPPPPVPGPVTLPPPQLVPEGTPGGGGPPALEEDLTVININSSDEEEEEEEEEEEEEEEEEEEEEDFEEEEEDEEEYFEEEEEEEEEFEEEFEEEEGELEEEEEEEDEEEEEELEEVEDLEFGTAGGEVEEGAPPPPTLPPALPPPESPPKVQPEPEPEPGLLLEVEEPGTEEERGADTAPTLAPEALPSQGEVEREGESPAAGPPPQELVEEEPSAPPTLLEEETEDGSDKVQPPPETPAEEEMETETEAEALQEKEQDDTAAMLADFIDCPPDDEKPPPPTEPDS
GST‐PELP1 deletion containing 401–600 aa: residues 401-600 of Q8IZL8

Legend:
[1] = target: Transcription factor AP‐2 gamma (TFAP2C), endogenous (human (endogenous in MCF7 and ZR75)) (UniProt Q92754); assay: co-IP; total lysates of MCF7 (legend: MCF7 and ZR75) cells, precleared with protein A beads, IP with TFAP2C antibody or control IgG, western blot for PELP1
[2] = target: GFP epitope tagged PELP1 (GFP‐PELP1) (UniProt Q8IZL8); assay: co-IP; total lysates of MCF7-GFP-PELP1 or ZR75-GFP-PELP1 cells (and control cells), precleared with protein A beads, IP with GFP-TRAP beads, western blot for TFAP2C
GST‐PELP1 full length = GST‐PELP1 full length (UniProt Q8IZL8); assay: pull-down; MCF7 total lysates incubated with E. coli expressed, purified GST-PELP1 full length or GST-PELP1 deletions (control GST); bound TFAP2C detected by western blot; only the target purified
[3] = target: GST‐PELP1 deletion containing 401–600 aa (UniProt Q8IZL8); assay: as above

Row | Substance | binding [1] | binding [2] | binding (GST‐PELP1 full length) | binding [3]
1 | Proline‐, glutamic acid‐, and leucine‐rich protein 1 (PELP1), endogenous (from UniProt Q8IZL8 1-1130) | binds | – | – | –
2 | Transcription factor AP‐2 gamma (TFAP2C), endogenous (from UniProt Q92754 1-450) | – | binds | binds | binds
